The data set can be described thus: Liquid/liquid extraction of Pu(IV) from aqueous solution (Tables 7 and 8). As to the method: Liquid/liquid extractions were performed with the radioactive plutonium isotope ^242 Pu at the Lawrence Livermore National Laboratory's Glenn T. Seaborg Institute for Transactinium Science, Livermore, Calif. The aqueous phase contained ^242 Pu, while the organic phases contained 3,2-HOPO ligands at 2-5 mM concentration. Kinetic studies were the primary method used to determine the efficacy of the specific ligand in organic solvent. Generally, five microcentrifuge tubes were prepared with the same organic and aqueous phases, and shaken with a vortex-style mixer for 1, 5, 10, and 20 minutes. After mixing, an aliquot of each phase was pipetted from the tube into a scintillation vial, mixed with a scintillation cocktail, and scintillation counted to determine the amount of the radioactive species present in each phase after extraction.

[1] abbreviates: octanol, 0.10M aqueous, 1.0 min.
The mark [2] stands for this setting: octanol, 0.10M aqueous, 5.0 min.
The mark [3] stands for this setting: octanol, 0.10M aqueous, 10.0 min.
Setting [4] is: octanol, 0.10M aqueous, 20.0 min.
Setting [5] is: octanol, 5.0M aqueous, 10.0 min.
The mark [6] stands for this setting: octanol, 5.0M aqueous, 20.0 min.

The results in this text go back to patent publication US5892029A, “3-hydroxy-2(1H)-pyridinone chelating agents” (priority 1997, dated 1999).

For the molecule `CCCCCCCCCCNC(=O)c1ccn(C)c(=O)c1O` [Me-2-HOPO-Decylamide], the “Decontamination Factor” value runs as follows: (MIBK, 0.10M aqueous, 1.0 min) 54.63 ± 0.85; (MIBK, 0.10M aqueous, 5.0 min) 24.40 ± 0.62; (MIBK, 0.10M aqueous, 10.0 min) 14.63 ± 0.46; (MIBK, 0.10M aqueous, 20.0 min) 6.97 ± 0.27; (MIBK, 5.0M aqueous, 1.0 min) 47.00 ± 0.79; (MIBK, 5.0M aqueous, 5.0 min) 47.62 ± 0.76. In addition, the “Decontamination Factor” value came to 23.87 ± 0.58 (MIBK, 5.0M aqueous, 10.0 min); 5.52 ± 0.23 (MIBK, 5.0M aqueous, 20.0 min); 3.22 ± 0.15 under setting [1]; 26.39 ± 0.61 under setting [2]; 20.71 ± 0.55 under setting [3]; 13.11 ± 0.42 under setting [4]. Further, the “Decontamination Factor” value is, setting by setting: (octanol, 5.0M aqueous, 1.0 min) 57.64 ± 0.84; (octanol, 5.0M aqueous, 5.0 min) 27.98 ± 0.25; under setting [5], 15.74 ± 0.47; under setting [6], 8.51 ± 0.31.

On to `CCCCCCCCNC(=O)c1ccn(C)c(=O)c1O` [Me-2-HOPO-Octylamide], for which the “Decontamination Factor” value is recorded as 22.90 ± 0.59 (MIBK, 0.10M aqueous, 1.0 min); 12.22 ± 0.41 (MIBK, 0.10M aqueous, 5.0 min); 31.07 ± 0.68 (MIBK, 0.10M aqueous, 10.0 min); 28.56 ± 0.58 (MIBK, 0.10M aqueous, 20.0 min); 80.22 ± 0.91 (MIBK, 5.0M aqueous, 1.0 min); 54.99 ± 0.82 (MIBK, 5.0M aqueous, 5.0 min). Moreover, the “Decontamination Factor” value by setting is: (MIBK, 5.0M aqueous, 10.0 min) 27.82 ± 0.64; (MIBK, 5.0M aqueous, 20.0 min) 6.20 ± 0.25; under setting [1], 17.83 ± 0.50; under setting [2], 18.10 ± 0.50; under setting [3], 12.71 ± 0.41; under setting [4], 11.32 ± 0.38. Besides, the “Decontamination Factor” value reads like this: (octanol, 5.0M aqueous, 1.0 min) 45.22 ± 0.76; (octanol, 5.0M aqueous, 5.0 min) 37.91 ± 0.70; under setting [5], 20.78 ± 0.54; under setting [6], 11.69 ± 0.38.
